Where a chain is given by its changes, count along the chain named. No constants are given. Whether binding was seen depends on the method and setting. In cells and extracts the contact can be indirect. Some results given as binding are weak or reduced against the parent protein; the word gives no strength. Tags and fused reporters may be left off the sequences shown.
B1: endogenous SEPT9 (protein, UniProt Q9UHD8 1-586)
chain: MKKSYSGGTRTSSGRLRRLGDSSGPALKRSFEVEEVETPNSTPPRRVQTPLLRATVASSTQKFQDLGVKNSEPSARHVDSLSQRSPKASLRRVELSGPKAAEPVSRRTELSIDISSKQVENAGAIGPSRFGLKRAEVLGHKTPEPAPRRTEITIVKPQESAHRRMEPPASKVPEVPTAPATDAAPKRVEIQMPKPAEAPTAPSPAQTLENSEPAPVSQLQSRLEPKPQPPVAEATPRSQEATEAAPSCVGDMADTPRDAGLKQAPASRNEKAPVDFGYVGIDSILEQMRRKAMKQGFEFNIMVVGQSGLGKSTLINTLFKSKISRKSVQPTSEERIPKTIEIKSITHDIEEKGVRMKLTVIDTPGFGDHINNENCWQPIMKFINDQYEKYLQEEVNINRKKRIPDTRVHCCLYFIPATGHSLRPLDIEFMKRLSKVVNIVPVIAKADTLTLEERVHFKQRITADLLSNGIDVYPQKEFDEDSEDRLVNEKFREMIPFAVVGSDHEYQVNGKRILGRKTKWGTIEVENTTHCEFAYLRDLLIRTHMQNIKDITSSIHFEAYRVKRLNEGSSAMANGMEEKEPEAPEM
B2: endogenous SEPT2 (protein, UniProt Q15019 1-361)
chain: MSKQQPTQFINPETPGYVGFANLPNQVHRKSVKKGFEFTLMVVGESGLGKSTLINSLFLTDLYPERVIPGAAEKIERTVQIEASTVEIEERGVKLRLTVVDTPGYGDAINCRDCFKTIISYIDEQFERYLHDESGLNRRHIIDNRVHCCFYFISPFGHGLKPLDVAFMKAIHNKVNIVPVIAKADTLTLKERERLKKRILDEIEEHNIKIYHLPDAESDEDEDFKEQTRLLKASIPFSVVGSNQLIEAKGKKVRGRLYPWGVVEVENPEHNDFLKLRTMLITHMQDLQEVTQDLHYENFRSERLKRGGRKVENEDMNKDQILLEKEAELRRMQEMIARMQAQMQMQMQGGDGDGGALGHHV
B3: endogenous SEPT6 (protein, UniProt Q14141 1-434)
chain: MAATDIARQVGEGCRTVPLAGHVGFDSLPDQLVNKSVSQGFCFNILCVGETGLGKSTLMDTLFNTKFEGEPATHTQPGVQLQSNTYDLQESNVRLKLTIVSTVGFGDQINKEDSYKPIVEFIDAQFEAYLQEELKIRRVLHTYHDSRIHVCLYFIAPTGHSLKSLDLVTMKKLDSKVNIIPIIAKADAISKSELTKFKIKITSELVSNGVQIYQFPTDDESVAEINGTMNAHLPFAVIGSTEELKIGNKMMRARQYPWGTVQVENEAHCDFVKLREMLIRVNMEDLREQTHTRHYELYRRCKLEEMGFKDTDPDSKPFSLQETYEAKRNEFLGELQKKEEEMRQMFVQRVKEKEAELKEAEKELHEKFDRLKKLHQDEKKKLEDKKKSLDDEVNAFKQRKTAAELLQSQGSQAGGSQTLKRDKEKKNNPWLCTE
B4: endogenous SEPT7 (protein, UniProt Q16181 1-437)
chain: MSVSARSAAAEERSVNSSTMVAQQKNLEGYVGFANLPNQVYRKSVKRGFEFTLMVVGESGLGKSTLINSLFLTDLYSPEYPGPSHRIKKTVQVEQSKVLIKEGGVQLLLTIVDTPGFGDAVDNSNCWQPVIDYIDSKFEDYLNAESRVNRRQMPDNRVQCCLYFIAPSGHGLKPLDIEFMKRLHEKVNIIPLIAKADTLTPEECQQFKKQIMKEIQEHKIKIYEFPETDDEEENKLVKKIKDRLPLAVVGSNTIIEVNGKRVRGRQYPWGVAEVENGEHCDFTILRNMLIRTHMQDLKDVTNNVHYENYRSRKLAAVTYNGVDNNKNKGQLTKSPLAQMEEERREHVAKMKKMEMEMEQVFEMKVKEKVQKLKDSEAELQRRHEQMKKNLEAQHKELEEKRRQFEDEKANWEAQQRILEQQNSSRTLEKNKKKGKIF
B5: endogenous SEPT9, Q9UHD8 1-586 (protein)
chain: B1 chain
B6: endogenous SEPT2, Q15019 1-361 (protein)
chain: B2 chain

Assays:
Assay in all cases: co-IP; HA-tagged SEPT6, SEPT6-4KR, SEPT7 or SEPT7-5KR with endogenous septins (supplemental Fig. S5B, D); the text does not name the method or the cells for these panels
HA-tagged SEPT7 (human) = target: T1, HA-tagged SEPT7 (human) (UniProt Q16181)
T1 sequence: B4 chain

[1] = target: T2, HA-tagged SEPT7 quintuple mutant SEPT7-5KR (K429/431/432/433/435R) (human) (UniProt Q16181)
T2 sequence: B4 chain with K429R, K431R, K432R, K433R, K435R

HA-tagged SEPT6 (human) = target: T3, HA-tagged SEPT6 (human) (UniProt Q14141)
T3 sequence: B3 chain

[2] = target: T4, HA-tagged SEPT6 (human), Q14141; conditions: remark: other sources report otherwise
T4 chain: B3 chain

[3] = target: T5, HA-tagged SEPT7 (human), Q16181; conditions: remark: other sources report otherwise
T5 chain: B4 chain

Row | Binder | binding (HA-tagged SEPT7 (human)) | binding [1] | binding (HA-tagged SEPT6 (human)) | other results
1 | B1 | binds | binds |  | 
2 | B2 |  | binds | binds | 
3 | B3 | binds | binds |  | 
4 | B4 |  |  | binds | 
5 | B5 |  |  |  | binding [2]: binds
6 | B6 |  |  |  | binding [3]: binds
